No constants are given. Whether binding was seen depends on the method and setting. In cells and extracts the contact can be indirect. Some binding calls cover weakened binding; strength is not graded here. For some assays here: Sequences can lack the tags named with a protein.
Legend:
[1] = target: STAT1, His-tagged, from pcDNA3.1-STAT1-6His (UniProt P42224); test: co-IP; exogenous co-IP; pcDNA3.1-G3BP2-2Flag and pcDNA3.1-STAT1-6His co-transfected into HEK293T cells for 24 h; lysate incubated with antibody (AE005 or AE003, ABclonal) and protein (A + G) agarose at 4°C for 4 h, washed with PBS, western blotting
[2] = target: STAT1 in CVB5-infected SH-SY5Y cells (human (endogenous in SH-SY5Y)) (UniProt P42224); test: co-IP; SH-SY5Y cells transfected with siLINC2781-1 or siNC, infected with CVB5 (MOI = 1) 24 h post-transfection, harvested at 24 hpi; co-IP of G3BP2 and STAT1

Sequences of proteins named here, by UniProt entry; tags and fusion partners are left off.
UniProt P42224: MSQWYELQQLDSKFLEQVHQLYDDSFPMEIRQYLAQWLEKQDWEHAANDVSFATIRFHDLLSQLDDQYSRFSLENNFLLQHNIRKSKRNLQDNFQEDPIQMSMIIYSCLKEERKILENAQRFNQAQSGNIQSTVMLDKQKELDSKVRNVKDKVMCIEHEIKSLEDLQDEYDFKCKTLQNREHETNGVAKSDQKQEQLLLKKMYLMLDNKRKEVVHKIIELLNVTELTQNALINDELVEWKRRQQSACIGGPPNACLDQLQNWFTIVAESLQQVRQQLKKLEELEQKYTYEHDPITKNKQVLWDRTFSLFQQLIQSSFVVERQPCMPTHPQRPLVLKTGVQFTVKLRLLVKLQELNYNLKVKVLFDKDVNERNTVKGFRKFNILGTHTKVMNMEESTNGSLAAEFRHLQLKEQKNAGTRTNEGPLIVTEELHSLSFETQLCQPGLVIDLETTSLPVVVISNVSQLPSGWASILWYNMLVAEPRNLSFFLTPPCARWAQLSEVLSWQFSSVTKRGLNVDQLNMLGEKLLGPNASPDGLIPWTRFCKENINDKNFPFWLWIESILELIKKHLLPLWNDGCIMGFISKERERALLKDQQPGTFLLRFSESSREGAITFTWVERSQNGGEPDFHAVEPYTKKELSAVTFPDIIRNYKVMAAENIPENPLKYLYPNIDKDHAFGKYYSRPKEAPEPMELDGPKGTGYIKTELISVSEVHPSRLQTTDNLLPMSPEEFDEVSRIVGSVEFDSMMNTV

B1: GTPase-activating protein SH3 domain-binding protein 2 (G3BP2), Flag-tagged, from pcDNA3.1-G3BP2-2Flag (protein, UniProt Q9UN86 1-482)
chain: MVMEKPSPLLVGREFVRQYYTLLNKAPEYLHRFYGRNSSYVHGGVDASGKPQEAVYGQNDIHHKVLSLNFSECHTKIRHVDAHATLSDGVVVQVMGLLSNSGQPERKFMQTFVLAPEGSVPNKFYVHNDMFRYEDEVFGDSEPELDEESEDEVEEEQEERQPSPEPVQENANSGYYEAHPVTNGIEEPLEESSHEPEPEPESETKTEELKPQVEEKNLEELEEKSTTPPPAEPVSLPQEPPKAFSWASVTSKNLPPSGTVSSSGIPPHVKAPVSQPRVEAKPEVQSQPPRVREQRPRERPGFPPRGPRPGRGDMEQNDSDNRRIIRYPDSHQLFVGNLPHDIDENELKEFFMSFGNVVELRINTKGVGGKLPNFGFVVFDDSEPVQRILIAKPIMFRGEVRLNVEEKKTRAARERETRGGGDDRRDIRRNDRGPGGPRGIVGGGMMRDRDGRGPPPRGGMAQKLGSGRGTGQMEGRFTGQRR
[1]
  binding: binds

B2: G3BP2 in CVB5-infected SH-SY5Y cells (protein, UniProt Q9UN86 1-482)
chain: MVMEKPSPLLVGREFVRQYYTLLNKAPEYLHRFYGRNSSYVHGGVDASGKPQEAVYGQNDIHHKVLSLNFSECHTKIRHVDAHATLSDGVVVQVMGLLSNSGQPERKFMQTFVLAPEGSVPNKFYVHNDMFRYEDEVFGDSEPELDEESEDEVEEEQEERQPSPEPVQENANSGYYEAHPVTNGIEEPLEESSHEPEPEPESETKTEELKPQVEEKNLEELEEKSTTPPPAEPVSLPQEPPKAFSWASVTSKNLPPSGTVSSSGIPPHVKAPVSQPRVEAKPEVQSQPPRVREQRPRERPGFPPRGPRPGRGDMEQNDSDNRRIIRYPDSHQLFVGNLPHDIDENELKEFFMSFGNVVELRINTKGVGGKLPNFGFVVFDDSEPVQRILIAKPIMFRGEVRLNVEEKKTRAARERETRGGGDDRRDIRRNDRGPGGPRGIVGGGMMRDRDGRGPPPRGGMAQKLGSGRGTGQMEGRFTGQRR
[2]
  binding: binds
